Assay results: patent US20140200135A1, “Carbamoylmethoxy- and carbamoylmethylthio- and carbamoylmethylamino benzamides for combating invertebrate pests” (BASF SE, priority 2011, published 2014)
Some entries share one result that the patent states for a list of compounds.

How the values were obtained:
Type in all cases: in vivo
[1] = test system: Diamond Backmoth (Plutella xylostella); assay: Diamond backmoth leaf-dip test, mortality; settings: 500 ppm; 72 hours after treatment; 3rd instar larvae on dipped cabbage leaves
[2] = test system: Southern Armyworm (Spodoptera eridiana); 2nd Instar Larvae; assay: Southern armyworm foliar spray test on lima bean, mortality; settings: 500 ppm; 4 days after treatment; lima bean foliage spray
[3] = test system: Cowpea Aphid (Aphis Craccivora); assay: Cowpea aphid spray test on potted cowpea plants, mortality; settings: 500 ppm; after 72 hours; sprayed cowpea plants
Description: The active compound was dissolved at the desired concentration in a mixture of 1:1 (vol:vol) distilled water:acetone. Surfactant (Alkamuls® EL 620) is added at a rate of 0.1% (vol/vol). The test solution was prepared at the day of use.
Potted cowpea plants were colonized with approximately 50-100 aphids of various stages by manually transferring a leaf tissue cut from infested plant 24 hours before application. Plants were sprayed after the pest population has been recorded. Treated plants were maintained on light carts at about 28° C. Percent mortality was assessed after 72 hours.

[4] = test system: Mediterranean Fruitfly (Ceratitis capitata); assay: Mediterranean fruitfly microtiter diet test, egg and larval mortality; settings: 2500 ppm, 5 days, insect diet
Summary of the method: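 Egg and larval mortality was judged by eye after 5 days at about 28±1 °C and 80±5% relative humidity. Beforehand, diet wells seeded with 50-80 eggs received a 5 μl spray of compound formulated in water/DMSO 75:25 v/v, at several concentrations in duplicate.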

[5] = test system: Orchid Thrips (dichromothrips corbetti); assay: Orchid thrips floral-immersion test, mortality; settings: 500 ppm, 72 hours after treatment, adult thrips
Description: Dichromothrips corbetti adults used for bioassay were obtained from a colony maintained continuously under laboratory conditions. For testing purposes, the test compound was diluted in a 1:1 mixture of acetone:water (vol:vol), plus 0.01% vol/vol Alkamuls® EL 620 surfactant.
Thrips potency of each compound was evaluated by using a floral-immersion technique. Plastic petri dishes were used as test arenas. All petals of individual, intact or chid flowers were dipped into treatment solution and allowed to dry. Treated flowers were placed into individual petri dishes along with about 20 adult thrips. The petri dishes were then covered with lids. All test arenas were held under continuous light and a temperature of about 28° C. for duration of the assay. After 3 days, the numbers of live thrips were counted on each flower, and along inner walls of each petri dish. The percent mortality was recorded 72 hours after treatment.

[6] = test system: Vetch aphid (Megoura viciae); assay: Vetch aphid broad bean leaf disk test, mortality; settings: 2500 ppm; 5 days; adult aphids on broad bean leaf disks
Summary of the method: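 Broad bean leaf disks sprayed with compounds formulated in 25% DMSO/water at several concentrations, two replicates, then infested with 5-8 adult aphids. After 5 days at about 23±1° C and 50±5% RH, mortality and fecundity were scored visually.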

[7] = test system: TOBACCO budworm (Heliothis virescens); assay: Tobacco budworm microtiter diet test, egg and larval mortality; settings: 2500 ppm, 5 days, insect diet
[8] = test system: Boll weevil (Anthonomus grandis); assay: Boll weevil microtiter diet test, egg and larval mortality; settings: 2500 ppm, 5 days, insect diet
[9] = test system: Green Peach Aphid (Myzus persicae); assay: Green peach aphid spray test on bell pepper plants, mortality; settings: 2500 ppm; after 5 days; sprayed bell pepper plants

Row | Structure (SMILES) | mortality in comparison with untreated controls [1] [%] | mortality in comparison with untreated controls [2] [%] | mortality in comparison with untreated controls [3] | mortality in comparison with untreated controls [4] | mortality in comparison with untreated controls [5] | mortality in comparison with untreated controls [6] | mortality in comparison with untreated controls [7] | mortality in comparison with untreated controls [8] | mortality in comparison with untreated controls [9]
1 | CNC(=O)CONC(=O)c1cc(C#N)cc(C)c1NC(=O)c1cc(Br)nn1-c1ncccc1Cl [Compound 1-6] | 100 | 100 | over 75% | over 75% | over 75% | over 75% | over 75% | over 75% | over 75%
2 | CNC(=O)CONC(=O)c1cc(F)cc(Br)c1NC(=O)c1cc(Br)nn1-c1ncccc1Cl [Compound 1-7] | 100 | 100 | over 75% | over 75% | over 75% | over 75% | over 75% | over 75% | over 75%
3 | C=CCNC(=O)CONC(=O)c1cc(Cl)cc(Br)c1NC(=O)c1cc(Br)nn1-c1ncccc1Cl [Compound 1-16] | 100 | 100 | over 75% | over 75% | over 75% | over 75% | over 75% | over 75% | over 75%
4 | Cc1cc(Cl)cc(C(=O)NOCC(=O)N2CCOCC2)c1NC(=O)c1cc(Br)nn1-c1ncccc1Cl [Compound 1-25] | 100 | 100 | over 75% | over 75% | over 75% | over 75% | over 75% | over 75% | over 75%
5 | CC(ONC(=O)c1cc(F)cc(Br)c1NC(=O)c1cc(Br)nn1-c1ncccc1Cl)C(N)=O (centres unmarked) [Compound 1-27] | 100 | 100 | over 75% | over 75% | over 75% | over 75% | over 75% | over 75% | over 75%
6 | Cc1cc(C#N)cc(C(=O)NOCC(=O)Nc2ccccc2)c1NC(=O)c1cc(Br)nn1-c1ncccc1Cl [Compound 1-33] | 100 | 100 | over 75% | over 75% | over 75% | over 75% | over 75% | over 75% | over 75%
7 | Cc1cc(C#N)cc(C(=O)NOCC(=O)NCc2ccccc2)c1NC(=O)c1cc(Br)nn1-c1ncccc1Cl [Compound 1-35] | 100 | 100 | over 75% | over 75% | over 75% | over 75% | over 75% | over 75% | over 75%
8 | CNC(=O)C(C)ONC(=O)c1cc(Cl)cc(C)c1NC(=O)c1cc(Br)nn1-c1ncccc1Cl (centres unmarked) [Compound 1-40] | 100 | 100 | over 75% | over 75% | over 75% | over 75% | over 75% | over 75% | over 75%
9 | CC(ONC(=O)c1cc(Cl)cc(Br)c1NC(=O)c1cc(Br)nn1-c1ncccc1Cl)C(N)=O (centres unmarked) [Compound 1-41] | 100 | 100 | over 75% | over 75% | over 75% | over 75% | over 75% | over 75% | over 75%
10 | CNC(=O)C(C)ONC(=O)c1cc(F)cc(Br)c1NC(=O)c1cc(Br)nn1-c1ncccc1Cl (centres unmarked) [Compound 1-43] | 100 | 100 | over 75% | over 75% | over 75% | over 75% | over 75% | over 75% | over 75%
11 | CCC(ONC(=O)c1cc(Cl)cc(C)c1NC(=O)c1cc(Br)nn1-c1ncccc1Cl)C(=O)NC (centres unmarked) [Compound 1-44] | 100 | 100 | over 75% | over 75% | over 75% | over 75% | over 75% | over 75% | over 75%
12 | CCC(ONC(=O)c1cc(Cl)cc(Br)c1NC(=O)c1cc(Br)nn1-c1ncccc1Cl)C(N)=O (centres unmarked) [Compound 1-45] | 100 | 100 | over 75% | over 75% | over 75% | – | over 75% | over 75% | over 75%
13 | Cc1cc(Cl)cc(C(=O)NOCC(=O)NCC(F)(F)F)c1NC(=O)c1cc(Br)nn1-c1ncccc1Cl [Compound 1-56] | 100 | 100 | – | over 75% | over 75% | over 75% | over 75% | over 75% | over 75%
14 | C#CCNC(=O)CONC(=O)c1cc(Cl)cc(C)c1NC(=O)c1cc(Br)nn1-c1ncccc1Cl [Compound 1-66] | 100 | 100 | – | over 75% | over 75% | over 75% | over 75% | over 75% | over 75%
15 | CNC(=O)CNNC(=O)c1cc(Cl)cc(C)c1NC(=O)c1cc(Br)nn1-c1ncccc1Cl [Compound 1-73] | 100 | 100 | over 75% | over 75% | over 75% | – | over 75% | over 75% | over 75%
